Data as given in PMC9932171.
Results are given in words; binding and its absence hold for the method and conditions named. In cells and extracts the contact can be indirect. Some entries that bind do so weakly or less than the wild type.

Protein sequences, listed by entry. Tags and fused reporters are not part of them. Residues count along the entry.
UniProt Q9Y6N7, residues 26-1651: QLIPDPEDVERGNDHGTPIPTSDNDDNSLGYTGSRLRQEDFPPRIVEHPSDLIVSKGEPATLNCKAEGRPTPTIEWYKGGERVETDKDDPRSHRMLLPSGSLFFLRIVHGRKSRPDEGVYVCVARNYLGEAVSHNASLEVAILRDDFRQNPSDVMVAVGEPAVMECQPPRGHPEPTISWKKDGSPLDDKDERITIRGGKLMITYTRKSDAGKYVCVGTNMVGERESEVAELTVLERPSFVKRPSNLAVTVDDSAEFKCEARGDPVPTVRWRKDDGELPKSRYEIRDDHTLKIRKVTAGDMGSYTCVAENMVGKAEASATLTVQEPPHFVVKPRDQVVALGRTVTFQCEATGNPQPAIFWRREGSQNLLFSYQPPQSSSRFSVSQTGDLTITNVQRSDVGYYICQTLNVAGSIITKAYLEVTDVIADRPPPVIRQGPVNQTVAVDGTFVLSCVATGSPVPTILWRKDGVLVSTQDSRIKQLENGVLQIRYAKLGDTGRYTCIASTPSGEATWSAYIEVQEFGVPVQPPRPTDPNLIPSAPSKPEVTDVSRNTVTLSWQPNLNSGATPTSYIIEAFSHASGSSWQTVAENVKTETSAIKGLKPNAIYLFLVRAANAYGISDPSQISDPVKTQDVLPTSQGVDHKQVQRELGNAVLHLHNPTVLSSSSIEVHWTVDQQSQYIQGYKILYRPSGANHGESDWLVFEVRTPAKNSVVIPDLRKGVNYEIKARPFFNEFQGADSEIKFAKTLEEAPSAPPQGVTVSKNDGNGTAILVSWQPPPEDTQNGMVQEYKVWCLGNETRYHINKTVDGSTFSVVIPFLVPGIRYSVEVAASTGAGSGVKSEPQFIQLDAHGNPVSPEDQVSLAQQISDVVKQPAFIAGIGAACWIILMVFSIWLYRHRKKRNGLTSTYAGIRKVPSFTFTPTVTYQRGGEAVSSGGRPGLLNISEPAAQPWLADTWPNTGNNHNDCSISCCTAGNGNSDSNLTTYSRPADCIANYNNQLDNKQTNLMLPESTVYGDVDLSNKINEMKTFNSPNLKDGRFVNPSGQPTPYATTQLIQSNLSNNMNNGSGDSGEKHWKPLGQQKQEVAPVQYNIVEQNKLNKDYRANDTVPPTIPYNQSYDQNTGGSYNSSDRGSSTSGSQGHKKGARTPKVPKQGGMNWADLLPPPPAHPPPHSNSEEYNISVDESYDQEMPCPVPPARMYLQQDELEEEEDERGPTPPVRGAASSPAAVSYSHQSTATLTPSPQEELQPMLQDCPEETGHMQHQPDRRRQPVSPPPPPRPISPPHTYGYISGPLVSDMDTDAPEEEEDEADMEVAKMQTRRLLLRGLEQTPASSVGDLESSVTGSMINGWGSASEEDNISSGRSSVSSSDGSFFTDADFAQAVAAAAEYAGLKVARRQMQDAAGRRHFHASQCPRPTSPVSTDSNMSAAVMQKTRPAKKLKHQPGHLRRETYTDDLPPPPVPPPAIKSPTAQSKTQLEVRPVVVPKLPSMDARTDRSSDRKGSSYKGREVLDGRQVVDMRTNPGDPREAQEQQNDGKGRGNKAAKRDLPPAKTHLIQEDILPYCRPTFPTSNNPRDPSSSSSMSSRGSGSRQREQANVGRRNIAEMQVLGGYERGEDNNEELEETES
UniProt Q16539: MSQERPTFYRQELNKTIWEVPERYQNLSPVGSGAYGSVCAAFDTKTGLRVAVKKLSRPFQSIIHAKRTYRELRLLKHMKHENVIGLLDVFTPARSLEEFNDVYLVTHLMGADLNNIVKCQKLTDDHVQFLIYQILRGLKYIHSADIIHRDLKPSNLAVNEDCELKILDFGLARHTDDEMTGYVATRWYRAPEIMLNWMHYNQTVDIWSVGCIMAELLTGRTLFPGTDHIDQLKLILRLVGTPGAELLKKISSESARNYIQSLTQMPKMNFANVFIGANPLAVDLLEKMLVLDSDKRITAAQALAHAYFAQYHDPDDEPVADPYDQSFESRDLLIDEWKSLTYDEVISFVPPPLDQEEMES

B1: MEK3 (enzyme, UniProt P46734-2 1-318)
chain: MSKPPAPNPTPPRNLDSRTFITIGDRNFEVEADDLVTISELGRGAYGVVEKVRHAQSGTIMAVKRIRATVNSQEQKRLLMDLDINMRTVDCFYTVTFYGALFREGDVWICMELMDTSLDKFYRKVLDKNMTIPEDILGEIAVSIVRALEHLHSKLSVIHRDVKPSNVLINKEGHVKMCDFGISGYLVDSVAKTMDAGCKPYMAPERINPELNQKGYNVKSDVWSLGITMIEMAILRFPYESWGTPFQQLKQVVEEPSPQLPADRFSPEFVDFTAQCLRKNPAERMSYLELMEHPFFTLHKTKKTDIAAFVKEILGEDS
B2: MEK6 (enzyme, UniProt P52564-1 1-334)
chain: MSQSKGKKRNPGLKIPKEAFEQPQTSSTPPRDLDSKACISIGNQNFEVKADDLEPIMELGRGAYGVVEKMRHVPSGQIMAVKRIRATVNSQEQKRLLMDLDISMRTVDCPFTVTFYGALFREGDVWICMELMDTSLDKFYKQVIDKGQTIPEDILGKIAVSIVKALEHLHSKLSVIHRDVKPSNVLINALGQVKMCDFGISGYLVDSVAKTIDAGCKPYMAPERINPELNQKGYSVKSDIWSLGITMIELAILRFPYDSWGTPFQQLKQVVEEPSPQLPADKFSAEFVDFTSQCLKKNSKERPTYPELMQHPFFTLHESKGTDVASFVKLILGD

Experiments:
[1] = target: ROBO1-FL (full-length ROBO1 expressed in SW-1990 cells) (UniProt Q9Y6N7); assay: co-IP; lysate of SW-1990 cells induced with 30 nM rSLIT2; anti-ROBO1 antibody on protein G Dynabeads; immunoblot
[2] = target: roundabout guidance receptor 1 (ROBO1), endogenous in PANC-1 cells (human (endogenous in PANC-1)) (UniProt Q9Y6N7); assay: co-IP; endogenous proteins in PANC-1 lysate; anti-ROBO1, anti-p38α MAPK or anti-MEK3/6 antibodies on protein G Dynabeads; lysate mixed with beads at room temperature for 30-60 min; immunoblot

Molecule | binding [1] | binding [2]
p38α MAPK (from UniProt Q16539 1-360) (enzyme) | binds | binds
B1 | – | binds
B2 | – | binds
